According to US20100021918A1, “METHOD FOR ASSAYING ACTION OF ANTITUMOR AGENT USING SPLICING DEFECTS AS INDEX” (Eisai R&D Management Co., Ltd., priority 2007, published 2010):
Further values from the same series stand in other lists.

Tested on: human colon carcinoma cell strain WiDr
Assay: Microarray analysis (2), reviewed conditions, intron expression, Table 3
Assay type: cell-based
Protocol: WiDr cells were first suspended in RPMI1640 medium (containing 10% FBS, penicillin, and streptomycin) and seeded in a 10 cm dish (2×10^6 cells/dish). After an overnight culture in an incubator with 5% carbon dioxide gas at 37° C., the medium was changed with medium containing 14 nM of (8E,12E,14E)-7-((4-cycloheptylpiperazin-1-yl)carbonyl)oxy-3,6,16,21-tetrahydroxy-6,10,12,16,20-pentamethyl-18,19-epoxytricosa-8,12,14-trien-11-olide or containing vehicle alone. After cultured for additional six hours, TRI reagent (SIGMA) were added to the cells and the cells were harvested. RNA was purified in accordance with the protocol of TRI reagent, followed by further purification with RNeasy (QIAGEN). Absorbance at 260 nm was measured to quantify an amount of RNA. This experiment was repeated three times and RNA samples (n=3) were prepared.
Ribosomal RNA was removed from 1 μg of each total RNA of control cells (n=3) and cells with the treatment (n=3) by using RiboMinus Human/Mouse Transcriptome Isolation Kit (Invitrogen). Single stranded cDNA synthesis, double stranded cDNA synthesis, cRNA synthesis, second single stranded cDNA synthesis, cDNA fragmentation, and cDNA labeling in order were carried out for the total RNA from which ribosomal RNA was removed, by using GeneChip Whole Transcript Sense Target Labeling and Control Reagents (Affymetrix) to make a cDNA probe. The cDNA probe was used for hybridization with Human Exon 1.0 ST Array (Affymetrix). The array was washed and stained, and luminescence intensity was measured by a scanner.
Analysis conditions were reviewed in the data used in Example 3. Genes containing increased introns upon treatment with (8E,12E,14E)-7-((4-cycloheptylpiperazin-1-yl)carbonyl)oxy-3,6,16,21-tetrahydroxy-6,10,12,16,20-pentamethyl-18,19-epoxytricosa-8,12,14-trien-11-olide were identified.
In order to consider the analysis conditions, variations in the data from the samples with identical conditions were studied. […] It turned out that, by analyzing under conditions where the expression level was more than 100 and change in the expression level was more than five times, a probe set with increased expression can be extracted.
Probe sets showing that the normalized change in the level expression of the probe set in the group with the treatment was more than 5 times; the expression level of the probe set and the gene in the group with the treatment were more than 100; and probe set annotation was “extended, full, free”, were picked out. Welch's t-test was conducted with the probe sets extracted for the treated group and the control group to determine a p and q value. A gene containing the probe sets with the q value of less than 5% was determined as a candidate gene with increased expression level of the intron regions (Table 3).
In Table 3, for each gene evaluated, gene name (Gene Name), abbreviated name (Gene Symbol), accession number (Accession), alias name (Synonym), transcription cluster number in Human Exon 1.0 ST Array (Human Exon 1.0 ST Array Transcript Cluster ID), chromosome number (Chromosome), type of strand (Strand), start region (Start), stop region (Stop), and change in expression level (Fold Change) were respectively shown.

Compound: CCC(O)C(C)C1OC1CC(C)(O)/C=C/C=C(\C)C1OC(=O)CC(O)CCC(C)(O)C(OC(=O)N2CCN(C3CCCCCC3)CC2)/C=C/C1C (stereo not shown) [E7107, (8E,12E,14E)-7-((4-cycloheptylpiperazin-1-yl)carbonyl)oxy-3,6,16,21-tetrahydroxy-6,10,12,16,20-pentamethyl-18,19-epoxytricosa-8,12,14-trien-11-olide]
- Fold Change (gene HTRA2, change in expression level, treated vs control): 6.23
- Fold Change (gene IARS, change in expression level, treated vs control): 6.38
- Fold Change (gene ID2B //ID2, Transcript Cluster ID 2468622, intron expression, treated vs control): 9.91
- Fold Change (gene IDI1, change in expression level, treated vs control): 11.81
- Fold Change (gene IFNGR1, intron expression, treated vs control): 7.04
- Fold Change (gene IGF2BP2, change in expression level, treated vs control): 6.45
- Fold Change (gene IKZF5, intron expression, treated vs control): 7.38
- Fold Change (gene IMP4, intron expression, treated vs control): 7.31
- Fold Change (gene INCENP, Transcript Cluster ID 3333358, intron expression, treated vs control): 9.73
- Fold Change (gene INTS10, intron expression, treated vs control): 6.67
- Fold Change (gene IPO7, change in expression level, treated vs control): 11.19
- Fold Change (gene ISG20L1, intron expression, treated vs control): 7.47
- Fold Change (gene ITGA2, intron expression, treated vs control): 7.31
- Fold Change (gene ITGA6, change in expression level, treated vs control): 19.59
- Fold Change (gene ITGB1, change in expression level, treated vs control): 21.20
- Fold Change (gene IVNS1ABP, intron expression, treated vs control): 7.10
- Fold Change (gene JMJD2A, change in expression level, treated vs control): 6.23
- Fold Change (gene KBTBD4, change in expression level, treated vs control): 6.32
- Fold Change (gene KEAP1 // ADAMTS6, intron expression, treated vs control): 7.20
- Fold Change (gene KHDRBS1, Transcript Cluster ID 2328465): 5.15
- Fold Change (gene KIAA0090, Transcript Cluster ID 2399620, intron expression, treated vs control): 9.22
- Fold Change (gene KIAA0179, intron expression, treated vs control): 6.87
- Fold Change (gene KIAA0317, change in expression level, treated vs control): 14.49
- Fold Change (gene KIAA0406, change in expression level, treated vs control): 11.38
- Fold Change (gene KIAA0409, change in expression level, treated vs control): 5.98
- Fold Change (gene KIAA0690 // CRTAM, change in expression level, treated vs control): 11.86
- Fold Change (gene KIAA0859, change in expression level, treated vs control): 14.17
- Fold Change (gene KIAA0907, change in expression level, treated vs control): 6.45
- Fold Change (gene KIAA1429, Transcript Cluster ID 3145020, intron expression, treated vs control): 9.57
- Fold Change (gene KIAA1984 // C9orf86, Transcript Cluster ID 3194635, intron expression, treated vs control): 10.81
- Fold Change (gene KIF5B, intron expression, treated vs control): 7.04
- Fold Change (gene KIF11, Transcript Cluster ID 3258168, intron expression, treated vs control): 10.90
- Fold Change (gene KIF20A, Transcript Cluster ID 2830638): 5.08
- Fold Change (gene KIF22, change in expression level, treated vs control): 6.40
- Fold Change (gene KLF10, intron expression, treated vs control): 7.30
- Fold Change (gene KLHL20, intron expression, treated vs control): 6.90
- Fold Change (gene KPNA4, change in expression level, treated vs control): 6.31
- Fold Change (gene KPNB1, change in expression level, treated vs control): 13.68
- Fold Change (gene KRT18, change in expression level, treated vs control): 11.07
- Fold Change (gene KRT19, intron expression, treated vs control): 7.32
- Fold Change (gene LATS2, Transcript Cluster ID 3504526, intron expression, treated vs control): 9.28
- Fold Change (gene LBR, intron expression, treated vs control): 7.19
- Fold Change (gene LEPROTL1, intron expression, treated vs control): 7.06
- Fold Change (gene LIPG, Transcript Cluster ID 3787855): 5.34
- Fold Change (gene LMO7, Transcript Cluster ID 3494137, intron expression, treated vs control): 9.22
- Fold Change (gene LRPPRC, intron expression, treated vs control): 6.51
- Fold Change (gene LRRC59, Transcript Cluster ID 3762355, intron expression, treated vs control): 10.85
- Fold Change (gene MAEA, intron expression, treated vs control): 7.25
- Fold Change (gene MAK10, intron expression, treated vs control): 7.06
- Fold Change (gene MAML1, intron expression, treated vs control): 7.03
- Fold Change (gene MAN1A2 // UCA1, Transcript Cluster ID 2353881, intron expression, treated vs control): 9.61
- Fold Change (gene MAP3K4, change in expression level, treated vs control): 6.42
- Fold Change (gene MAP3K14, intron expression, treated vs control): 6.85
- Fold Change (gene MAPRE1, change in expression level, treated vs control): 12.37
- Fold Change (gene MARCKS, Transcript Cluster ID 2922215): 5.17
- Fold Change (gene MARK2, intron expression, treated vs control): 6.55
- Fold Change (gene MARK3, change in expression level, treated vs control): 6.50
- Fold Change (gene MATR3, intron expression, treated vs control): 7.26
- Fold Change (gene MBNL1, change in expression level, treated vs control): 6.08
- Fold Change (gene MBNL2, change in expression level, treated vs control): 19.31
- Fold Change (gene MCL1, Transcript Cluster ID 2434438, intron expression, treated vs control): 9.93
- Fold Change (gene MED28, Transcript Cluster ID 2720181, intron expression, treated vs control): 8.95
- Fold Change (gene MET, intron expression, treated vs control): 6.97
- Fold Change (gene METAP2 // FLJ11292, Transcript Cluster ID 3426917): 5.23
- Fold Change (gene MGC22014, change in expression level, treated vs control): 6.37
- Fold Change (gene MGC72104 // FRG1, Transcript Cluster ID 2756029): 5.13
- Fold Change (gene MIS12, Transcript Cluster ID 3707759): 5.13
- Fold Change (gene MKI67IP, change in expression level, treated vs control): 13.76
- Fold Change (gene MLL, Transcript Cluster ID 3351385): 5.10
- Fold Change (gene MLLT4, Transcript Cluster ID 2936857): 5.28
- Fold Change (gene MORF4 // MORF4L1, change in expression level, treated vs control): 11.90
- Fold Change (gene MORF4L2, intron expression, treated vs control): 7.03
- Fold Change (gene MPHOSPH10, Transcript Cluster ID 2488078): 5.16
- Fold Change (gene MRPL16, change in expression level, treated vs control): 5.99
- Fold Change (gene MRPL44, Transcript Cluster ID 2529782): 5.41
- Fold Change (gene MRPL46, intron expression, treated vs control): 7.23
- Fold Change (gene MRPL55, Transcript Cluster ID 2459438): 5.11
- Fold Change (gene MRPS2, intron expression, treated vs control): 7.02
- Fold Change (gene MRPS7, Transcript Cluster ID 3734760, intron expression, treated vs control): 10.41
- Fold Change (gene MRPS30, intron expression, treated vs control): 6.71
- Fold Change (gene MSN, change in expression level, treated vs control): 11.57
- Fold Change (gene MTAP, intron expression, treated vs control): 6.77
- Fold Change (gene MTMR1, intron expression, treated vs control): 6.97
- Fold Change (gene MTMR3, Transcript Cluster ID 3942179): 5.19
- Fold Change (gene MTMR12, intron expression, treated vs control): 7.00
- Fold Change (gene MUC20, change in expression level, treated vs control): 6.27
- Fold Change (gene MXD1, intron expression, treated vs control): 6.82
- Fold Change (gene NARG1, intron expression, treated vs control): 7.00
- Fold Change (gene NAT10, change in expression level, treated vs control): 12.51
- Fold Change (gene NCBP2, Transcript Cluster ID 2713074, intron expression, treated vs control): 9.23
- Fold Change (gene NCL, Transcript Cluster ID 2603460): 5.19
- Fold Change (gene NDUFS3, intron expression, treated vs control): 7.41
- Fold Change (gene NEDD4L // SEMA4G, Transcript Cluster ID 3789947): 5.30
- Fold Change (gene NET1, Transcript Cluster ID 3233182, intron expression, treated vs control): 10.35
- Fold Change (gene NF2, change in expression level, treated vs control): 6.29
- Fold Change (gene NFE2L2 // DKFZp451M2119, Transcript Cluster ID 2588827, intron expression, treated vs control): 9.48
- Fold Change (gene NFE2L3, change in expression level, treated vs control): 11.01
- Fold Change (gene NFXL1, intron expression, treated vs control): 6.55
- Fold Change (gene NHS, intron expression, treated vs control): 7.29
- Fold Change (gene NIP7, Transcript Cluster ID 3666686, intron expression, treated vs control): 9.64
- Fold Change (gene NIPBL // NRBP1, intron expression, treated vs control): 6.68
- Fold Change (gene NKIRAS2, intron expression, treated vs control): 6.70
- Fold Change (gene NOL1, Transcript Cluster ID 3442024, intron expression, treated vs control): 10.79
